The test concerns the target T1, integrin β5 (mouse (endogenous in RAW 264.7)) (UniProt O70309).
T1 sequence: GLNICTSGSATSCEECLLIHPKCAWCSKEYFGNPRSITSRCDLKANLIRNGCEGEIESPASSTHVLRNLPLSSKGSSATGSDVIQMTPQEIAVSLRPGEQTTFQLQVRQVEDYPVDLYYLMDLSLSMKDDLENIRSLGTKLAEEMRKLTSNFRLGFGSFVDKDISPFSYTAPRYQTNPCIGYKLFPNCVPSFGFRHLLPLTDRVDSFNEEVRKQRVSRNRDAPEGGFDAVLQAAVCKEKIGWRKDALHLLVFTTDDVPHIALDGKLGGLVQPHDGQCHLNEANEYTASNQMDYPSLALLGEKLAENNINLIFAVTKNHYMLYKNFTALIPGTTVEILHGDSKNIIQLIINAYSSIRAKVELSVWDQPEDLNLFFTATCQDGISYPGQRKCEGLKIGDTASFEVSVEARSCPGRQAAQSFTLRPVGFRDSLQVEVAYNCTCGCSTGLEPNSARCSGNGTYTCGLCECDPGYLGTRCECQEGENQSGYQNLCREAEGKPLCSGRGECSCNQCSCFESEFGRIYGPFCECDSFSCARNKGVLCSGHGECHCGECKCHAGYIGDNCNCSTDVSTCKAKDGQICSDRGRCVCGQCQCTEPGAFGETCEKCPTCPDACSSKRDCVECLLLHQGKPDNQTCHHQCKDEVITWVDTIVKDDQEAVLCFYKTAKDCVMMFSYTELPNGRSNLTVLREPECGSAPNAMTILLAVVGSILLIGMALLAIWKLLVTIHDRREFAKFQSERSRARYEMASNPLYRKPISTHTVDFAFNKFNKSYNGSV
Put plainly: co-IP; RAW 264.7 cells lysed with NP-40 lysis buffer with phosphatase and protease inhibitors; lysates incubated overnight with individual antibody and protein A/G beads, washed four times with lysis buffer, SDS-PAGE and immunoblotting. Background: Immunoblotting shows a protein as a band on a membrane.

By UniProt entry, the sequences of proteins in these tests, tags left out. Residues count along the entry.
UniProt P02469, residues 22-1786: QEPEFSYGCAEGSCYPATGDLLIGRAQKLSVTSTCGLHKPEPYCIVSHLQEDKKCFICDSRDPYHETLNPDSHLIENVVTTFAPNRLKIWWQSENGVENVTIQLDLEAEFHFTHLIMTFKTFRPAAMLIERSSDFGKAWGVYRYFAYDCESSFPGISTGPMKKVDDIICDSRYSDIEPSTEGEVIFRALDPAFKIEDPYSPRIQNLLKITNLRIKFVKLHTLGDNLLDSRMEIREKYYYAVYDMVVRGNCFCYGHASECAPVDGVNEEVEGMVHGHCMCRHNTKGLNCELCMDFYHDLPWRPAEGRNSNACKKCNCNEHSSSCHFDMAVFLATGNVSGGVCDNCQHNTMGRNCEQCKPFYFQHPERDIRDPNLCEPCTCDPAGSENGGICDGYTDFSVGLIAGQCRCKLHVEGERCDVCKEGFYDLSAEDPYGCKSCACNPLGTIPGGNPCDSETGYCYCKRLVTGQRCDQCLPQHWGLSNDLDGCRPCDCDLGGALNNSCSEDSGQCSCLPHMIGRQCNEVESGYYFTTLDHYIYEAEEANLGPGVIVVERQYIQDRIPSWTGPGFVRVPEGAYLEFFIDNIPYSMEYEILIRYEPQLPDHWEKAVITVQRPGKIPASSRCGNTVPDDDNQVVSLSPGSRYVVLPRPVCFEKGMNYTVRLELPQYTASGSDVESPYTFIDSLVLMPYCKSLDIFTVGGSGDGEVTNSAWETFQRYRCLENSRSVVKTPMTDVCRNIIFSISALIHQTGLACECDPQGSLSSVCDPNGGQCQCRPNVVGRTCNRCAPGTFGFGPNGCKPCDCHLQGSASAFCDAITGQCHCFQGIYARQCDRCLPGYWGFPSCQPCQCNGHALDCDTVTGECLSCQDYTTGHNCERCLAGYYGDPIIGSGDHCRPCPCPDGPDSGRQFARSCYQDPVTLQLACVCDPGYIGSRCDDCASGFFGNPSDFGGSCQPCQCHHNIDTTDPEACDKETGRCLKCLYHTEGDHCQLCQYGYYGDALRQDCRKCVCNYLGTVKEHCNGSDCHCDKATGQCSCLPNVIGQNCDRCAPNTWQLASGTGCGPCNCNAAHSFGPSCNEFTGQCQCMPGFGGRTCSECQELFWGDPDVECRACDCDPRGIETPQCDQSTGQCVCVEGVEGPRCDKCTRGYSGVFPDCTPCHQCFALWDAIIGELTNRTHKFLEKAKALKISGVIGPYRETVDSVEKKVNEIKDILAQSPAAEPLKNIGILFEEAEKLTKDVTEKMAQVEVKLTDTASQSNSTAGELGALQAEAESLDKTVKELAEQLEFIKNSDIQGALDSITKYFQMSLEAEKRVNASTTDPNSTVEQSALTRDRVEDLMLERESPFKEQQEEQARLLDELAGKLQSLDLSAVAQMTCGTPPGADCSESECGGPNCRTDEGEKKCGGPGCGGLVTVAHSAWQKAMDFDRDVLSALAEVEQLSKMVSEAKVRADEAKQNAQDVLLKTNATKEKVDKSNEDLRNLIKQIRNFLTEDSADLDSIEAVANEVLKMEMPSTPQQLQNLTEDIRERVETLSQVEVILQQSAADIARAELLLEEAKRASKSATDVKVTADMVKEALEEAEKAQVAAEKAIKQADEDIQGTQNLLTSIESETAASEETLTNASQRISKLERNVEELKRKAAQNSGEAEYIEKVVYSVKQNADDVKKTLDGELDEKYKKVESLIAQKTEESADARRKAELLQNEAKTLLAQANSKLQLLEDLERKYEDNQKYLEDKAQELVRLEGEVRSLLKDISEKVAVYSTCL
UniProt P02468, residues 34-1607: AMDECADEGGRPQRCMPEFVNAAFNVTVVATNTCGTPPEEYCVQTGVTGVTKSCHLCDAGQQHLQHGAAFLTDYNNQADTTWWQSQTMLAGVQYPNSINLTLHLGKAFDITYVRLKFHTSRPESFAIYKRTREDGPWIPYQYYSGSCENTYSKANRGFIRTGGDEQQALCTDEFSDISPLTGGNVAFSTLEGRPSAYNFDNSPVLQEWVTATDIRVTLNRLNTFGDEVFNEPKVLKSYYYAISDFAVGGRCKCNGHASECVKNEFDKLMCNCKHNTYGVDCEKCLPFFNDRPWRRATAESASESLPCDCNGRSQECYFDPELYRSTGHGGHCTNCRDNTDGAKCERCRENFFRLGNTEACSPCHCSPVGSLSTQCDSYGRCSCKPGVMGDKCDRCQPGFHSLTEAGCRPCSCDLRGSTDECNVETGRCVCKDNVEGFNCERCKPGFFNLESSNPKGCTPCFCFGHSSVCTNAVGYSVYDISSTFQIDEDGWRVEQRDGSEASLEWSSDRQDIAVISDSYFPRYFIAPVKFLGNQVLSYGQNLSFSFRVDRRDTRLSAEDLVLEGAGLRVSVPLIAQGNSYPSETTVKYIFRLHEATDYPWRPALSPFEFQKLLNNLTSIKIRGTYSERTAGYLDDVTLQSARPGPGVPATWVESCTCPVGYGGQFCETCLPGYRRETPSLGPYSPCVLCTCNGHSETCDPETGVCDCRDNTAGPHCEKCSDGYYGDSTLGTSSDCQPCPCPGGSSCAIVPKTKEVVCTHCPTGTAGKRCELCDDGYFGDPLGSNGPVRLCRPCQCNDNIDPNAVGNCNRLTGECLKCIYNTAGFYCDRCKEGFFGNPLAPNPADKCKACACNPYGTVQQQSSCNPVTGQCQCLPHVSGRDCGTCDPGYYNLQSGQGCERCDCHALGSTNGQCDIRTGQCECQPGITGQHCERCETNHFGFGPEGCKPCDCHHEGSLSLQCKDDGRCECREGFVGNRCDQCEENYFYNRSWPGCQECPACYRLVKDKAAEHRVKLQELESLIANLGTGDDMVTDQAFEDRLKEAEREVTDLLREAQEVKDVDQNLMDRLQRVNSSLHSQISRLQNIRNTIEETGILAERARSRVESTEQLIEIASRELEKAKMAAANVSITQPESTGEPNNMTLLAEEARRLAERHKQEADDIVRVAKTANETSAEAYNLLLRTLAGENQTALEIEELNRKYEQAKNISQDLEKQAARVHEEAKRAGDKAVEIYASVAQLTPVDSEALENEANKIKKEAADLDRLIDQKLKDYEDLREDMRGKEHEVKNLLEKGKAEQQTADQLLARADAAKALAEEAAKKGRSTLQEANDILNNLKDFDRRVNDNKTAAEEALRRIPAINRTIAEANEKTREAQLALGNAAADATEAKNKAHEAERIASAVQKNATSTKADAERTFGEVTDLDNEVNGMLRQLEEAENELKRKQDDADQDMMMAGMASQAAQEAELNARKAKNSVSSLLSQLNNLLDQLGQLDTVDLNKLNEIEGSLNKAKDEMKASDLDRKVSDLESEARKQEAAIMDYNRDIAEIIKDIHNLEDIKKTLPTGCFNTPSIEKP

No constants are given. Whether binding was seen depends on the method and setting. In cells and extracts the contact can be indirect. Some results given as binding are weak or reduced against the parent protein; the word gives no strength.

Consider LAMB1 (from UniProt P02469 22-1786), for which the binding result was “binds”.

Take LAMC1 (from UniProt P02468 34-1607): the binding entry is recorded as “binds”.

Source of the values: publication PMC9729302.
